In article PMC12116747:
These are yes or no findings as the source states them, for the method shown. Binding seen in cells or lysates may run through a third protein. Here binding means that the protein was enriched with, or labelled near, the bait; the list need not be complete.

Chains of the proteins cited; added tags and fusions are not shown.
UniProt O43809: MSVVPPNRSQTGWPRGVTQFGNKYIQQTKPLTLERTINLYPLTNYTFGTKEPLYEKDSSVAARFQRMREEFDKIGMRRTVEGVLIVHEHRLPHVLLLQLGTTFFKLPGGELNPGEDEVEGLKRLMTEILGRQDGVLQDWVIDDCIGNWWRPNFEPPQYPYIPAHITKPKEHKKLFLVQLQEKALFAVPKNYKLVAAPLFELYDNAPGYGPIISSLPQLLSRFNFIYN
UniProt Q92769: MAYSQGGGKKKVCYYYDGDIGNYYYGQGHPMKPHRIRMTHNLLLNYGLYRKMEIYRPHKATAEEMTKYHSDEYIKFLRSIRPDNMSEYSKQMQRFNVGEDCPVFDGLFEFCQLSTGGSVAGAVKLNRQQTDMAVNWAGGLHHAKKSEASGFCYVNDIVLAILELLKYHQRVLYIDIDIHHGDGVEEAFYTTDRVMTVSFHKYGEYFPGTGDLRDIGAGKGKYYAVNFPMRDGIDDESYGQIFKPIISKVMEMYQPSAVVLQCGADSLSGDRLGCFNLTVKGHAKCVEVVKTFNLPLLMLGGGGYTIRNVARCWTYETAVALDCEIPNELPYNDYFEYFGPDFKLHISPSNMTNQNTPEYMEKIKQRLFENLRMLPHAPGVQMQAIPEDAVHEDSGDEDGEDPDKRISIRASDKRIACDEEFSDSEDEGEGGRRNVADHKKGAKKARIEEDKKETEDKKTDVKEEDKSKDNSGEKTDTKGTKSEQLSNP

Target: NUDT21 (immunoprecipitated from cells; Co-IP with AARS1 and LC-MS/MS) (human) (UniProt O43809)
Test: affinity purification with mass spectrometry; LC-MS/MS after NUDT21 immunoprecipitation; cells not told

binding: binds
Substance: HDAC2 (found by LC-MS/MS in the NUDT21 immunoprecipitate) (from UniProt Q92769 1-488) (enzyme)
